From publication PMC6044906
These are yes or no findings as the source states them, for the method shown. In cells and extracts the contact can be indirect.

B1: LRRC6 (protein, UniProt O88978 1-473)
chain: MGRITEDLIRRNAEHNDCVIFSLEELSLHQQEIERLEHIDKWCRDLKILYLQNNLIGKIENVSKLKKLEYLNLALNNIERIENLEGCEWLTKLDLTVNFIGELSSVKTLTHNIHLKELFLMGNPCADFDGYRQFVVVTLQQLKWLDGKEIERSERIQALQNYTSVEQQIREQEKAYCLRRAKEKEEAQRKLEEENESEDKKKSSTGFDGHWYTDIHTACPSATENQDYPQVPETQEEQHNTKESDDIEDDLAFWNKPSLFTPESRLETLRHMEKQRKAQDKLSEKKKKAKPPRTLITEDGKVLNVNEAKLDFSLKDDEKHNQIILDLAVYRYMDTSLIEVDVQPTYVRVMVKGKPFQLALSTEVQPDRSSAKRSQTTGHLLICMPKVGEMITGGQRTPTSVKTTSTSSREQTNPRKKQIERLEVDPSKHSCPDVSTIVQEKRHRPKRMESQPRDEPSEEDPDFEDNPEVPPLI
B2: DNAAF1 (protein, UniProt Q9D2H9 1-634)
chain: MHPEVSEPPVDSVAEPSLEESAGDHGDAGPGIRKEEISETKETCAGPCTTSCPSQQQPSGDNGSEGFCTHSRDDREDRGPRMTKQFLQKLCKQHKLYVTPALNDTLYLHFKGFDRIENLEEYTGLRCLWLECNGIQRIENLQAQSELRCLFLQVNLLHKIENLEPLQKLDALNLSNNYIKTIENLSCLPVLNTLQMAHNRLETVADIEHLRECLRLCVLDLSHNALSDPEILSVLESMPCLRVLNLMGNPVTKHIPNYRRTVTVRLKHLTYLDDRPVFPKDRACAEAWARGGYAAEKEERRQWESREHKKITDSLEALAMIKRRAEERKKARDRGETPLPDSEGSIPTSPEAEEKQPMGEIQKKMELFVEESFEAKDELFPETPGGEKELHVVVVNGAVENPDLSGSLAHNQTPVVVTPEESTSPVAATDGARTEDIEAVAVEIKERLFIDDLPDLEDAEGTDVSVEDQIKETDIPRIQAISSLSDDSDPELDELSLSTSEATPTGATGALSHIFAISKGPSTAATVPFTDICKPIATTDLESQGQDCGAAASRPLIQELNDEPAEEAANQPLPPQTCASDPALAHPSEDGDSDSQLPAATLLGDGAEDEAESSVHPKEPSTRVGLEDIEFGLD

Target: ZMYND10 (mouse (endogenous in testes and oviduct))
Assay: co-IP; endogenous ZMYND10 immunoprecipitated with two ZMYND10 antibodies from control and Zmynd10 mutant P30 mouse testes extracts, immunoblot; reciprocal endogenous immunoprecipitations for LRRC6 and DNAAF1, rIgG control; sodium molybdate in the IP buffer for HSP90

Row | Binder | binding
1 | B1 | no binding
2 | B2 | no binding
